Paper PMC7177587

Target: GST‐PDZ1‐5‐M2 (GST‐PDZ1‐5 with PDZ domain 2 disrupted by the GLG‐GRG mutation)
Assay: pull-down; GST-MUPP1-PDZ fusion proteins immobilized on glutathione resin (30 µl) mixed with 1 ml E. coli extract with overexpressed CBD or GlyT2Nrcf1 fusion of the CADM1 motif, 1 hr, room temperature; washed 3x; eluted with 20 mM glutathione (pH 8.0) or SDS sample buffer; 12% gel, Coomassie; only the target purified

Binder | binding
EKKEYFI [GlyT2Nrcf1‐EKKEYFI fusion protein] | binds
EKKEYFI [CBD‐EKKEYFI fusion protein containing the CADM1 PDZ motif (EKKEYFI)] | binds

No constants are given. Whether binding was seen depends on the method and setting. In cells and extracts the contact can be indirect. A result given as binding can be weak or reduced; the word gives no strength. Tags and fused reporters may be left off the sequences shown.
